Source: patent US20150017203A1, “COMBINATION PRODUCT FOR TREATING EXCESS WEIGHT AND/OR FOR IMPROVING THE FIGURE” (INSTITUT NATIONAL DE LA RECHERCHE AGRONOMIQUE - INRA, priority 2012, published 2015)

Assay: Plasma dosages (non-esterified fatty acids, triglycerides, cholesterol, glucose)
Assay type: in vivo, mice
Experimental: 100 male mice C57 Black 6/J aged 5 weeks (January, France) were accommodated in individual cages in the pet center of the INRA center, Theix, in thermoregulated premises (20-22° C.) and submitted to alternating 12 hour-cycles of light and darkness. […] The mice weight was measured every 2 weeks. Prior to being sacrificed, mice after 15 h fasting were anesthetized through barbital intraperitoneal injection (1.5 μl/g). Blood was collected in EDTA-containing specimen collectors before being centrifuged (12000 rpm, 4 min, room temperature). Plasma was thereafter collected, distributed in aliquots and frozen in liquid nitrogen, then stored at −80° C. The adipose peri-epididymal tissue, liver and leg triceps muscle (gastrocnemius muscle), tibialis and quadriceps muscles were weighted, frozen in liquid nitrogen, then stored at −80° C.

[1] = difference with high-lipid diet alone (HL), mice, 3 weeks

CC(C)c1c(C(=O)Nc2ccccc2)c(-c2ccccc2)c(-c2ccc(F)cc2)n1CC[C@@H](O)C[C@@H](O)CC(=O)O [Statin, Atorvastatin]
Plasma levels: Non esterified fatty acids [1]: −11%
Plasma levels: Triglycerides [1]: −13%
Plasma levels of non-esterified fatty acids compared to control mice (vs control mice): to a lesser extent
